{"sequences": {"note": "Sequences of proteins named here, by UniProt entry; tags and fusion partners are left off. A change or cut given only in a name is not applied to a line headed by its entry.", "UniProt Q01638": "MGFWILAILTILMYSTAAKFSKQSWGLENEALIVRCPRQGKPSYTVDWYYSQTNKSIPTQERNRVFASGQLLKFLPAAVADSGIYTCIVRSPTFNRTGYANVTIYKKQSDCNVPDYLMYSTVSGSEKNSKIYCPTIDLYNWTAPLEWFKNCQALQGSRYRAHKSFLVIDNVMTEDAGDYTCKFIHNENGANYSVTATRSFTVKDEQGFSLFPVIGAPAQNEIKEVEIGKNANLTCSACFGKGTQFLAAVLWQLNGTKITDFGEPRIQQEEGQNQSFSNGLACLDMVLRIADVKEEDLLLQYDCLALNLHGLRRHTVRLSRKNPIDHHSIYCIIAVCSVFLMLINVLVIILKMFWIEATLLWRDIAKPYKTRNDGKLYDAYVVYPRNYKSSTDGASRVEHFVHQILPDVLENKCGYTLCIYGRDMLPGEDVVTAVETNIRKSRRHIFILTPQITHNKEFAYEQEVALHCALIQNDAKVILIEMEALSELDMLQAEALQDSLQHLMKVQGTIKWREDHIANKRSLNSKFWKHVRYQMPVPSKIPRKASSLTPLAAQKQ"}, "source": "PubChem BioAssay AID1259354", "about": "(Paczesny and Yang Labs, IUPUI and University of Michigan, 2018)", "note": "Several values for one entry are separate records, joined by “and”; a condition that tells them apart may be missing. Equal values may be shown once. In all, about 78,000 compounds went through this assay and about 1,800 (2.3%) were called active. Inconclusive results, whose numbers are uncertain, are shown with a selection of clear calls. Rule as the data show it: active = inhibition above about 30%; inconclusive = mostly about 10% to 28%; inactive = weaker than that.", "data": [{"biological_target": "Interleukin-1 receptor-like 1 (Homo sapiens) (UniProt Q01638)", "experiment": "blocks human ST2 binding to IL-33, primary screen, biochemical, AlphaLISA (AID 1259354)", "settings": "AlphaLISA ST2-Fc/biotin-IL-33 interaction, 1 h; at 17 µM, stronger effect = higher value", "values": [{"compound": "CCOc1ccc(C2C(C#N)=C(C(=C=[N-])C#N)NC(O)(C3CC3)C2[n+]2ccc(C)cc2)cc1", "note": "(centres undefined)", "inhibition": "inconclusive: 18%"}, {"compound": "Cc1ccc(S(=O)(=O)N2CCN(C(=O)CN3CCCC3)C2)cc1[N+](=O)[O-]", "inhibition": "inactive"}, {"compound": "COc1ccc(OC)c(NC(=O)c2cnc3ccccc3n2)c1", "inhibition": "inconclusive: 11%"}, {"compound": "CCc1cn[nH]c1C1CCCN(C(=O)c2c(-c3ccccc3)ccnc2C)C1", "note": "(centres undefined)", "inhibition": "inconclusive: 12%"}, {"compound": "CCC(C)NC(=O)C(C)N1C(=O)COc2ccc(C)cc21", "note": "(centres undefined)", "inhibition": "inactive"}, {"compound": "Cc1ccc(Cn2ccc(NC(=O)CCCn3nc([N+](=O)[O-])cc3C)n2)cc1", "inhibition": "inactive"}, {"compound": "Cc1ccc(C)c(OCC(=O)Nc2ccc(Br)cc2F)c1", "inhibition": "inactive"}, {"compound": "COc1cc(Br)c(/C=C2\\C(=O)N(c3ccccc3)N=C2C)cc1OC", "inhibition": "inactive"}, {"compound": "O=C(Cc1ccccc1O)N1CCCC(Nc2ccc(F)c(F)c2)C1", "note": "(centres undefined)", "inhibition": "inactive"}, {"compound": "N#CC1=C(N)OC2=C(C(=O)CC(c3ccccc3)C2)C1c1cccc(Cl)c1", "note": "(centres undefined)", "inhibition": "inconclusive: 10%"}, {"compound": "O=S(=O)(c1cccc2cccnc12)N1CCCC1", "inhibition": "inconclusive: 17% and inconclusive: 10%"}, {"compound": "Cc1nn(CCCC(=O)Nc2cc(Oc3ccc4c(c3)CCC4)cc([N+](=O)[O-])c2)c(C)c1[N+](=O)[O-]", "inhibition": "inconclusive: 22%"}, {"compound": "CC1=C(C(=O)Nc2ccccc2F)C(c2ccccn2)C2=C(CC(C)(C)CC2=O)N1", "note": "(centres undefined)", "inhibition": "inconclusive: 15%"}, {"compound": "O=C(Cn1c(=O)[nH]c2ccsc2c1=O)NCc1ccc(F)cc1", "inhibition": "inactive"}, {"compound": "COc1ccccc1NC(=O)CN(c1ccccc1Cl)S(=O)(=O)c1ccc(C)cc1", "inhibition": "inconclusive: 11%"}, {"compound": "COc1ccc(C(=O)CSc2nc3ccccc3c(=O)[nH]2)cc1C", "inhibition": "inconclusive: 13% and inconclusive: 11%"}, {"compound": "CC(C)Oc1cccc(F)c1-c1cc(C(N)=O)ccn1", "inhibition": "inactive"}, {"compound": "O=C(NCc1ccccc1)C1CCC(CNS(=O)(=O)c2cccc3nsnc23)CC1", "note": "(centres undefined)", "inhibition": "inactive"}, {"compound": "COc1ccc(CN2CCN(c3ccccn3)CC2)cc1O", "inhibition": "inconclusive: 16%"}, {"compound": "Cc1ccnc(N=Cc2nc(-c3ccc(Cl)cc3)oc2O)c1", "inhibition": "inconclusive: 11%"}, {"compound": "Cc1cccc(C(C)C)c1NC(=O)c1ccc(F)cc1", "inhibition": "inconclusive: 23%"}, {"compound": "CC1(C)CC2CC(C)(CN2S(=O)(=O)c2ccc(N)cc2)C1", "note": "(centres undefined)", "inhibition": "inconclusive: 14%"}, {"compound": "Cc1ccc(F)c(S(=O)(=O)N2CCC(O)(C(=O)O)CC2)c1", "inhibition": "inconclusive: 17%"}, {"compound": "Cn1c(=O)c2nc(-c3ccccc3Br)oc2c2ccccc21", "inhibition": "inactive"}, {"compound": "CC(C)N(C)C1CCN(S(=O)(=O)c2ccc(Cl)cc2)CC1", "inhibition": "inactive"}, {"compound": "O=C(CSc1nc2c([nH]c3ccccc32)c(=O)n1-c1ccc(F)cc1)N1CCCC1", "inhibition": "inconclusive: 28%"}, {"compound": "CC(=O)c1c(C)nc2c(C#N)c(C)n(-c3ccccc3)c2c1-c1ccccc1", "inhibition": "inconclusive: 13%"}, {"compound": "O=C(O)c1cccc(NC2=CC(=NS(=O)(=O)c3ccc(F)cc3)c3ccccc3C2=O)c1", "inhibition": "active: 45%"}, {"compound": "Cc1ccc2oc(-c3cc(N)ccc3O)nc2c1", "inhibition": "active: 45%"}, {"compound": "Cc1ccc(S(=O)(=O)N2CCN(c3nc(C)cc(N4CCOCC4)n3)CC2)c(C)c1", "inhibition": "inconclusive: 26%"}, {"compound": "COc1nc(-c2ccccc2O)nc2ccccc12", "inhibition": "inconclusive: 13%"}, {"compound": "O=C(CCc1ccccc1)Nc1scc(-c2cccs2)c1C(=O)O", "inhibition": "inactive"}, {"compound": "Cc1ccc(C(NC(=O)CN2CC(=O)NC2=O)c2cccnc2)cc1C", "note": "(centres undefined)", "inhibition": "inconclusive: 10%"}, {"compound": "COc1ccc(Br)cc1CN1CCCCCC1", "inhibition": "inconclusive: 18%"}, {"compound": "CC1=C(C(=O)Nc2ccc(C)cc2C)C(c2cccc(Br)c2)n2nnnc2N1", "note": "(centres undefined)", "inhibition": "inactive"}, {"compound": "Cc1cc([N+](=O)[O-])ccc1NC(=O)CCCc1ccccc1", "inhibition": "inconclusive: 10%"}, {"compound": "CN(Cc1ccccc1)C(=O)C[C@@H]1O[C@H](CNC(=O)c2ccccc2)[C@@H](O)[C@H]1O", "inhibition": "inconclusive: 12%"}, {"compound": "CC1(C)CC(=O)C(C(C2=C(O)CC(C)(C)CC2=O)c2ccc([N+](=O)[O-])s2)C(=O)C1", "note": "(centres undefined)", "inhibition": "active: 30%"}, {"compound": "Cc1cc(N(C)C)nc(Nc2ccc(NC(=O)c3ccccc3F)cc2)n1", "inhibition": "inconclusive: 14%"}, {"compound": "C=C(C)COc1cccc(C(=O)NCc2cncn2CC)c1", "inhibition": "inactive"}, {"compound": "NC(=O)C(=O)NCCC1CN(Cc2ccc3occc3c2)CCO1", "note": "(centres undefined)", "inhibition": "inconclusive: 10%"}, {"compound": "COc1ccc(N2CCN(C(=O)c3csc4c3CCCC4)CC2)cc1", "inhibition": "inconclusive: 29%"}, {"compound": "C=CCOc1nc2c(c(=O)n(Cc3ccc(Br)cc3)c(=O)n2C)n1C", "inhibition": "active: 39%"}, {"compound": "Cc1ncoc1C(=O)N1CCOc2c(O)cc(-c3csc4ccccc34)cc2C1", "inhibition": "inconclusive: 10%"}, {"compound": "Cc1cc(=O)oc2cc(Oc3ccc(C(F)(F)F)cc3[N+](=O)[O-])ccc12", "inhibition": "inconclusive: 11%"}, {"compound": "O=C(CSc1nc2c([nH]c3ccccc32)c(=O)n1-c1ccc(Cl)cc1)Nc1nccs1", "inhibition": "active: 31%"}, {"compound": "Cc1nc2ccc(I)cc2c(=O)n1C", "inhibition": "inactive"}, {"compound": "Cc1ccc2oc(-c3ccc(Cl)c(Cl)c3)c(O)c(=O)c2c1", "inhibition": "inconclusive: 29%"}, {"compound": "Cc1nc2ncccn2c1-c1csc(Nc2cccc([N+](=O)[O-])c2)n1", "inhibition": "active: 37%"}, {"compound": "COc1ccc(NC2=CC(c3ccc(OC)c(OC)c3)N(c3ccc(OC)cc3)C2=O)cc1", "note": "(centres undefined)", "inhibition": "inconclusive: 12%"}, {"compound": "O=c1c2cnn(-c3ccccc3)c2ncn1Cc1cccc2ccccc12", "inhibition": "inactive"}, {"compound": "CN(C(=O)Cc1ccccc1)c1ccccc1", "inhibition": "active: 36%"}, {"compound": "COc1ccc(NC(=O)Nc2c(C)nc3nc[nH]n3c2=O)c(OC)c1", "inhibition": "inactive"}, {"compound": "O=[N+]([O-])c1ccc2nc(CSc3nccs3)[nH]c2c1", "inhibition": "inconclusive: 19%"}, {"compound": "O=c1c2ccccc2nc(/C=C/c2ccc(O)cc2)n1CCCO", "inhibition": "inactive"}, {"compound": "COc1ccc(-n2nc(C(=O)N3CCCCC3C)c3c4ccccc4n(C)c3c2=O)cc1Cl", "note": "(centres undefined)", "inhibition": "active: 97%"}, {"compound": "CC1CCCCN1S(=O)(=O)c1ccc(NC(=O)c2cncc(Br)c2)cc1", "note": "(centres undefined)", "inhibition": "inconclusive: 12%"}, {"compound": "CN(Cc1cnn(-c2ccc(F)cc2)c1)Cc1ncccc1C(=O)O", "inhibition": "inconclusive: 16%"}, {"compound": "c1ccc(NCCn2cnc(-c3ccccc3)c2-c2ncc[nH]2)cc1", "inhibition": "inactive"}, {"compound": "COc1cccc(-c2nccn2CCc2ccco2)c1OC", "inhibition": "inconclusive: 23%"}, {"compound": "C=C(c1ccccc1)n1c(=O)[nH]c2ccccc21", "inhibition": "inactive"}, {"compound": "O=C1[C@H]2C3c4ccccc4C(CO)(c4ccccc43)[C@H]2C(=O)N1c1cccc([N+](=O)[O-])c1", "inhibition": "inconclusive: 26%"}, {"compound": "COc1ccc2nc(Nc3ccc(F)cc3)sc2c1", "inhibition": "inactive"}, {"compound": "CC(Cn1cccn1)C(=O)N1CCc2c(nc(-c3ccccn3)[nH]c2=O)C1", "note": "(centres undefined)", "inhibition": "inactive"}, {"compound": "Cc1ccc2[nH]c(CN(C)Cc3nc(-c4cccnc4)no3)nc2c1C", "inhibition": "inactive"}, {"compound": "CC(=O)N1C(=O)NC2C1NC(=O)N2C(C)=O", "note": "(centres undefined)", "inhibition": "inconclusive: 20%"}, {"compound": "Cc1ccc(N2C(=O)CC(Nc3ccc(N4CCOCC4)cc3)C2=O)c(Br)c1", "note": "(centres undefined)", "inhibition": "active: 56%"}, {"compound": "CCCc1cnc(-c2ccc(OC)nc2)nc1", "inhibition": "inconclusive: 19%"}, {"compound": "COc1cc(Br)cc(/C=C2/NC(=O)N(Cc3ccc(Cl)cc3)C2=O)c1OC", "inhibition": "inconclusive: 17%"}, {"compound": "COc1cccc(Oc2nc3c(c(=O)n(C)c(=O)n3C)n2Cc2ccccc2Cl)c1", "inhibition": "inconclusive: 15%"}, {"compound": "CCCCN(C)S(=O)(=O)c1ccc(C(=O)Nc2nnc(-c3cccs3)o2)cc1", "inhibition": "inconclusive: 10%"}, {"compound": "Cc1cc(=O)n(-c2ccc(S(=O)(=O)O)cc2)[nH]1", "inhibition": "inactive"}, {"compound": "O=[N+]([O-])c1ccccc1COc1ccc(Cl)c2cccnc12", "inhibition": "inconclusive: 22%"}, {"compound": "O=C(CCN1CCCCO1)NCC(c1ccccc1)C1CCCC1", "note": "(centres undefined)", "inhibition": "inconclusive: 15%"}, {"compound": "NC(=O)CSc1nc2c(sc3ccccc32)c(=O)n1Cc1ccccc1Cl", "inhibition": "inconclusive: 13%"}, {"compound": "COC(=O)C1=CO[C@@H](O[C@@H]2O[C@H](CO)[C@@H](O)[C@H](O)[C@H]2O)[C@H]2[C@@H]1[C@H](O)C[C@]2(C)O", "inhibition": "inconclusive: 11%"}, {"compound": "COc1ccc(CNc2oc(COc3ccccc3Cl)nc2C#N)cc1", "inhibition": "inconclusive: 27%"}, {"compound": "COc1ccc(Cc2nc3ccc(C(=O)N(C)CCc4cnn(C)c4)cc3o2)cc1OC", "inhibition": "inconclusive: 10%"}, {"compound": "COc1ccc(CC(=O)N2CCc3c([nH]c4ccccc34)C2c2cccc(C)n2)cc1OC", "note": "(centres undefined)", "inhibition": "inconclusive: 16%"}, {"compound": "O=C(Nc1cccnc1)c1c(F)c(F)c(F)c(F)c1F", "inhibition": "inconclusive: 13%"}, {"compound": "COCCNC(=O)c1cc(=O)[nH]c2ccc(S(=O)(=O)N3CCCC3)cc12", "inhibition": "inactive"}, {"compound": "CN(C(=O)CC1=CCCCC1)C1CCCN(C2Cc3ccccc3C2)C1", "note": "(centres undefined)", "inhibition": "inactive"}, {"compound": "O=C(O)CNC(=O)/C(=C/c1ccc2c(c1)OCO2)NC(=O)c1ccccc1Cl", "inhibition": "inactive"}, {"compound": "CC1CC(=O)N(CC(=O)NCC2CCCO2)c2ccccc2S1", "note": "(centres undefined)", "inhibition": "inconclusive: 17%"}, {"compound": "CC1CCN(S(=O)(=O)c2ccc(C(=O)Nc3nnc(C4CC4)o3)cc2)CC1", "inhibition": "inconclusive: 12%"}, {"compound": "COc1ccc2cc(C3CN(S(=O)(=O)C4CC4)CCO3)ccc2c1", "note": "(centres undefined)", "inhibition": "inactive"}, {"compound": "Cc1c(NCc2ccccn2)cccc1C(=O)N(C)C(C)c1ccon1", "note": "(centres undefined)", "inhibition": "inconclusive: 17%"}, {"compound": "Cc1ccc(Cn2c(CNS(=O)(=O)c3ccc(Cl)cc3)nc3cccnc32)cc1", "inhibition": "inconclusive: 15%"}, {"compound": "CCOC(=O)C1CCN(C(=O)c2cc3c(=O)n4cccc(C)c4nc3n2C)CC1", "inhibition": "inactive"}, {"compound": "Cc1cccc(N2C(=O)CC3CS(=O)(=O)CC32)c1C", "note": "(centres undefined)", "inhibition": "inactive"}, {"compound": "O=C(O)C1Cc2c([nH]c3ccccc23)C(c2ccccc2Cl)N1", "note": "(centres undefined)", "inhibition": "inactive"}, {"compound": "Cc1ccc(Cn2c(=N)n(CC(=O)c3ccco3)c3ccccc32)cc1", "inhibition": "inconclusive: 25%"}, {"compound": "N#CC1=C(N)Oc2cc(N)ccc2C1c1ccc([N+](=O)[O-])cc1", "note": "(centres undefined)", "inhibition": "inconclusive: 15%"}, {"compound": "CCOC(=O)C1CCCN(C(=O)c2cn(CC(C)C)c(=O)c3c2c2ccccc2n3C)C1", "note": "(centres undefined)", "inhibition": "inactive"}]}]}
